One molecule from patent US20100330697A1, “COMPLEXES OF TRPC DOMAINS AND SESTD1 DOMAINS AND METHODS AND USES INVOLVING THE SAME” (SANOFI-AVENTIS, priority 2007, published 2010) can be followed below.

In the experiment the target is T1, mTRPC4α (615-974)/leucine zipper/pGBKT7 (murine, UniProt P04386 1-147; Q9QUQ5 615-974).
T1 construct: Yeast two-hybrid bait in yeast AH109; the order here follows the printed construct name behind the GAL4 DNA-BD; The zipper is said to direct tetramerization; also called mTRPC4a C-terminus
As to the kind of experiment: directed yeast two-hybrid, growth on selective media.

B1: SESTD1-Sec 14 (aa 1-192), GAL4 activation domain fusion (other, human, UniProt Q86VW0 1-192, looked up, not shown: large carriers)
chain: MEASVILPILKKKLAFLSGGKDRRSGLILTIPLCLEQTNMDELSVTLDYLLSIPSEKCKARGFTVIVDGRKSQWNVVKTVVVMLQNVVPAEVSLVCVVKPDEFWDKKVTHFCFWKEKDRLGFEVILVSANKLTRYIEPCQLTEDFGGSLTYDHMDWLNKRLVFEKFTKESTSLLDELALINNGSDKGNQQEK
notes: range 1-192; Directed yeast two-hybrid prey
Turning to B1, the binding result is given as “no binding”.
